Measurements reported in PubChem BioAssay AID602196 (INSERM, 2012)
Here is one part, drawn at random, of about 23,000 deposited reagents. 455 of them (2%) were called active. 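Active includes both protection and sensitisation; some change values fall well beyond the stated -50 to +50 range.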 Not all columns of the deposit are shown. Not given: the amount of reagent.

Test: 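Modifiers of cisplatin sensitivity in A549 cells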
Cells: human A549 lung cancer cells
Knock-down reagent: siRNA pair against human genes
Timing: 48 h transfection before cisplatin; time from cisplatin to read-out not stated
Challenge: cisplatin at a dose killing half of control-siRNA cells; exact dose and duration not given
Detection: 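Shift in cisplatin death relative to control siRNA, from -50 (all cells die) to +50 (no cells die); siRNAs harmful on their own scored 0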
Scale: two-siRNA summed score (-2 to +2): higher = both siRNAs protect from cisplatin killing; -2 means both sensitise; mean protection from cisplatin (shift in death): higher = protection from cisplatin killing
Hit rule: 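siRNAs harmful alone (LDH or WST-1) get 0; others get +1 for less and -1 for more cisplatin killing; genes are active when the two siRNAs give the same sign, summing to ±2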
Meaning of the calls: active = both siRNAs shift cisplatin killing the same way; inactive = no consistent shift, or siRNA harmful alone

Knock-down of TBC1D2B (TBC1 domain family member 2B) came out at: two-siRNA summed score (-2 to +2) = 1; mean protection from cisplatin (shift in death) (%) = 6.5; inactive.
Against LOC150580, the values are two-siRNA summed score (-2 to +2) = 0; mean protection from cisplatin (shift in death) (%) = 6.2; inactive.
Knock-down of TMEM179 (transmembrane protein 179) gave: two-siRNA summed score (-2 to +2) = 0; mean protection from cisplatin (shift in death) (%) = 0.5; inactive.
With knock-down of CLSTN1 (calsyntenin 1), the screen gave two-siRNA summed score (-2 to +2) = 0; mean protection from cisplatin (shift in death) (%) = 0.9; inactive.
With knock-down of TMED9 (transmembrane p24 trafficking protein 9), the screen gave two-siRNA summed score (-2 to +2) = 0; mean protection from cisplatin (shift in death) (%) = 1.8; inactive.
With knock-down of EZH2 (enhancer of zeste 2 polycomb repressive complex 2 subunit), the screen gave two-siRNA summed score (-2 to +2) = -1; mean protection from cisplatin (shift in death) (%) = -12.5; inactive.
EPM2AIP1 (EPM2A interacting protein 1) showed two-siRNA summed score (-2 to +2) = 1; mean protection from cisplatin (shift in death) (%) = 16.3; inactive.
Against TFF2 (trefoil factor 2), the values are two-siRNA summed score (-2 to +2) = 0; mean protection from cisplatin (shift in death) (%) = -6.5; inactive.
With knock-down of PSMD3 (proteasome 26S subunit, non-ATPase 3), the screen gave two-siRNA summed score (-2 to +2) = 1; mean protection from cisplatin (shift in death) (%) = 17; inactive.
With knock-down of ACADL (acyl-CoA dehydrogenase long chain), the record shows two-siRNA summed score (-2 to +2) = 0; mean protection from cisplatin (shift in death) (%) = -6.4; inactive.
For MAGT1 (magnesium transporter 1), the values are two-siRNA summed score (-2 to +2) = -1; mean protection from cisplatin (shift in death) (%) = -16.3; inactive.
For FNTA (farnesyltransferase, CAAX box, subunit alpha) the deposit lists two-siRNA summed score (-2 to +2) = 0; mean protection from cisplatin (shift in death) (%) = 4.4; inactive.
For CXXC1 (CXXC finger protein 1), the values are two-siRNA summed score (-2 to +2) = 0; mean protection from cisplatin (shift in death) (%) = -6.4; inactive.
ROBO1 (roundabout guidance receptor 1) showed two-siRNA summed score (-2 to +2) = -1; mean protection from cisplatin (shift in death) (%) = -12.1; inactive.
After knock-down of PDCD6IP (programmed cell death 6 interacting protein) the results were two-siRNA summed score (-2 to +2) = -1; mean protection from cisplatin (shift in death) (%) = -7; inactive.
For LOC340211, the entry reads two-siRNA summed score (-2 to +2) = 0; mean protection from cisplatin (shift in death) (%) = 3.1; inactive.
Silencing of ADAM30 (ADAM metallopeptidase domain 30) gave: two-siRNA summed score (-2 to +2) = 0; mean protection from cisplatin (shift in death) (%) = 3.5; inactive.
EPCIP (exosomal polycystin 1 interacting protein) scored two-siRNA summed score (-2 to +2) = -1; mean protection from cisplatin (shift in death) (%) = -10.7; inactive.
With knock-down of FUCA1 (alpha-L-fucosidase 1) the results were two-siRNA summed score (-2 to +2) = 1; mean protection from cisplatin (shift in death) (%) = 11.4; inactive.
Against TUBA1B (tubulin alpha 1b), the entry reads two-siRNA summed score (-2 to +2) = 0; mean protection from cisplatin (shift in death) (%) = -2; inactive.
Silencing of MYBPH (myosin binding protein H) resulted in: two-siRNA summed score (-2 to +2) = 0; mean protection from cisplatin (shift in death) (%) = 11.6; inactive.
With knock-down of SHARPIN (SHANK associated RH domain interactor), the record shows two-siRNA summed score (-2 to +2) = 1; mean protection from cisplatin (shift in death) (%) = 20.5; inactive.
For GAS1 (growth arrest specific 1), the values are two-siRNA summed score (-2 to +2) = 0; mean protection from cisplatin (shift in death) (%) = 0.3; inactive.
With knock-down of NUDC (nuclear distribution C, dynein complex regulator) the results were two-siRNA summed score (-2 to +2) = -1; mean protection from cisplatin (shift in death) (%) = -3.3; inactive.
After knock-down of KRTAP10-10 (keratin associated protein 10-10), the screen gave two-siRNA summed score (-2 to +2) = 0; mean protection from cisplatin (shift in death) (%) = 10.1; inactive.
LOC441538 scored two-siRNA summed score (-2 to +2) = 0; mean protection from cisplatin (shift in death) (%) = 15.1; inactive.

Limited to “mean protection from cisplatin (shift in death) (%)”, for 7 of the entries above:
TBC1D2B (TBC1 domain family member 2B): 6.5
LOC150580: 6.2
TMEM179 (transmembrane protein 179): 0.5
CLSTN1 (calsyntenin 1): 0.9
TMED9 (transmembrane p24 trafficking protein 9): 1.8
EZH2 (enhancer of zeste 2 polycomb repressive complex 2 subunit): -12.5
EPM2AIP1 (EPM2A interacting protein 1): 16.3

The results go on:
With knock-down of FADS1 (fatty acid desaturase 1), the screen gave two-siRNA summed score (-2 to +2) = 1; mean protection from cisplatin (shift in death) (%) = 8.4; inactive.
Knock-down of CACNA1H (calcium voltage-gated channel subunit alpha1 H) gave: two-siRNA summed score (-2 to +2) = -2; mean protection from cisplatin (shift in death) (%) = -24.8; active.
LPA (lipoprotein(a)) scored two-siRNA summed score (-2 to +2) = 0; mean protection from cisplatin (shift in death) (%) = -10.5; inactive.
Against LOC255809, the values are two-siRNA summed score (-2 to +2) = 0; mean protection from cisplatin (shift in death) (%) = 6.4; inactive.
TAS2R40 (taste 2 receptor member 40) showed two-siRNA summed score (-2 to +2) = -1; mean protection from cisplatin (shift in death) (%) = -4.5; inactive.
URI1 (URI1 prefoldin like chaperone) showed two-siRNA summed score (-2 to +2) = 1; mean protection from cisplatin (shift in death) (%) = 9.9; inactive.
Depletion of RPL30 (ribosomal protein L30) came out at: two-siRNA summed score (-2 to +2) = 0; mean protection from cisplatin (shift in death) (%) = 18.5; inactive.
With knock-down of FAM114A2 (family with sequence similarity 114 member A2), the record shows two-siRNA summed score (-2 to +2) = 0; mean protection from cisplatin (shift in death) (%) = 8.9; inactive.
LOC285961 showed two-siRNA summed score (-2 to +2) = 0; mean protection from cisplatin (shift in death) (%) = 7.7; inactive.
PTP4A3 (protein tyrosine phosphatase 4A3) gave two-siRNA summed score (-2 to +2) = -1; mean protection from cisplatin (shift in death) (%) = 0.1; inactive.
With knock-down of P4HA1 (prolyl 4-hydroxylase subunit alpha 1), the screen gave two-siRNA summed score (-2 to +2) = 0; mean protection from cisplatin (shift in death) (%) = -9.5; inactive.
Against DMBX1 (diencephalon/mesencephalon homeobox 1), the entry reads two-siRNA summed score (-2 to +2) = 0; mean protection from cisplatin (shift in death) (%) = 2; inactive.
Against EPHA7 (EPH receptor A7), the entry reads two-siRNA summed score (-2 to +2) = 1; mean protection from cisplatin (shift in death) (%) = 7.6; inactive.
With knock-down of OR52I2 (olfactory receptor family 52 subfamily I member 2) the results were two-siRNA summed score (-2 to +2) = 0; mean protection from cisplatin (shift in death) (%) = -2.1; inactive.
